# The supplement of paper PMC10727501
# Some of the results follow. Single values are uncertain here, since repeats match poorly.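 Free-swimming zebrafish larvae were scored for O-bend response probability to dark flashes (naive: first five; training: remaining flashes of four 60-flash blocks; test: later 60-flash block) and for turning toward alternating leftward/rightward LED motion (OMR). Six treated larvae were compared with sixty 0.1% DMSO controls; |SSMD|≥2 defined a hit.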
# System: Danio rerio larvae (5 dpf, TLF)
# Assay: OMR-Perf (SSMD vs DMSO vehicle); higher = higher than vehicle (e.g. higher dark-flash O-bend response probability, or better optomotor performance)
# Details: 10 µM; pre-incubation: 30-90 min
row,Compound,OMR-Perf
1,O=C(Nc1cc2cc[nH]c2cn1)c1ccccc1,0.125
2,N#C/C(=C\c1ccc(O)c(O)c1)C(=O)NCc1ccccc1 [AG-490 (Tyrphostin B42)],0.331
3,Cc1ccccc1CN1C2=NCCN2C(=O)C2=C1CCN(Cc1ccccc1)C2,0.872
4,CN(C)CCCNC(=O)c1ccc(-c2cc(O)c3ncccc3c2)cc1,0.0371
5,CC(=O)c1c(C)c2cnc(Nc3ccc(N4CCNCC4)cn3)nc2n(C2CCCC2)c1=O.O=S(=O)(O)CCO,-0.121
6,O=C(NOC[C@H](O)CO)c1ccc(F)c(F)c1Nc1ccc(I)cc1F,-0.928
7,CC(C)(C#N)c1ccc(N2C(=O)OCc3cnc4ccc(-c5cnc6ccccc6c5)cc4c32)cc1,-0.223
8,NC(=O)c1ccc(N(C(N)=O)c2c(F)cccc2F)nc1-c1ccc(F)cc1F,-0.511
9,COc1cc(Nc2c(C#N)cnc3cc(OCCCN4CCN(C)CC4)c(OC)cc23)c(Cl)cc1Cl [Bosutinib (SKI-606)],0.539
10,CCC[C@@H]1C[C@@H](C(=O)N[C@@H](C(C)Cl)[C@H]2O[C@@H](SC)[C@H](O)[C@@H](O)[C@H]2O)N(C)C1.Cl (stereo not given in full) [Clindamycin HCl],-0.179
11,C[C@H]1CCN(C(=O)CC#N)C[C@@H]1N(C)c1ncnc2[nH]ccc12.O=C(O)CC(O)(CC(=O)O)C(=O)O,-0.104
12,CN/C(=C/[N+](=O)[O-])NCCSCc1csc(CN(C)C)n1 [Nizatidine],0.161
13,CC(=O)NCC(=O)O.CC(=O)NCC(=O)O.N=C(N)c1ccc(/N=N/Nc2ccc(C(=N)N)cc2)cc1 [Diminazene Aceturate],0.439
14,O=C(c1ccc(F)cc1)C1CCN(CCn2c(=O)[nH]c3ccccc3c2=O)CC1 [Ketanserin],-0.425
15,Cc1ccc2c(=O)c3cccc(CC(=O)O)c3oc2c1C [DMXAA (Vadimezan)],-0.391
16,Cc1ncc([N+](=O)[O-])n1CC(C)O (stereo not given) [Secnidazole],-0.665
17,Cl.Cl.Clc1ccc(Nc2nnc(Cc3ccncc3)c3ccccc23)cc1 [Vatalanib (PTK787) 2HCl],-0.387
18,CC(C)(C)c1ccc(C(O)CCCN2CCC(C(O)(c3ccccc3)c3ccccc3)CC2)cc1 (stereo not given) [Terfenadine],-1.24
19,CCS(=O)(=O)CCn1c([N+](=O)[O-])cnc1C [Tinidazole],0.213
20,CCOc1ccn(-c2ccc(F)cc2)c(=O)c1C(=O)Nc1ccc(Oc2ccnc(N)c2Cl)c(F)c1,-0.0683
21,COc1cc2c(cc1OC)[C@@H]1Cc3ccc(OC)c(OC)c3CN1CC2 [Rotundine],-0.45
22,NS(=O)(=O)Cc1noc2ccccc12 [Zonisamide],-0.0493
23,CNCC(O)c1ccc(O)c(O)c1 (racemic) [DL-Adrenaline],0.202
24,Cc1cc(NC(=O)C2=C(O)c3ccccc3S(=O)(=O)N2C)no1 [Isoxicam],0.129
25,Cl.O=C(c1ccc(OCCN2CCCCC2)cc1)c1c(-c2ccc(O)cc2)sc2cc(O)ccc12 [Raloxifene HCl],-0.379
26,Cc1c(CN2CCN(C(=O)[C@H](C)O)CC2)sc2c(N3CCOCC3)nc(-c3cnc(N)nc3)nc12,-0.371
27,CCNC(=O)c1noc(-c2cc(C(C)C)c(O)cc2O)c1-c1ccc(CN2CCOCC2)cc1,0.142
28,Cc1c(Cn2c(C)nc3c(C(=O)O)cc(N4CCOCC4)cc32)cccc1C(F)(F)F,-0.8
29,Nc1cc(F)ccc1NC(=O)/C=C/c1cnn(C/C=C/c2ccccc2)c1,0.748
30,C[N+](C)(C)CCO.[Cl-] [Choline Chloride],-0.0373

# A draw from above in order of formula weight, ascending:
row,Compound,OMR-Perf
19,CCS(=O)(=O)CCn1c([N+](=O)[O-])cnc1C [Tinidazole],0.213
29,Nc1cc(F)ccc1NC(=O)/C=C/c1cnn(C/C=C/c2ccccc2)c1,0.748
7,CC(C)(C#N)c1ccc(N2C(=O)OCc3cnc4ccc(-c5cnc6ccccc6c5)cc4c32)cc1,-0.223
